Read-outs that look alike come from different tables or passages of the source. Results are given in words; binding and its absence hold for the method and conditions named. Binding seen in cells or lysates may run through a third protein. Some binding calls cover weakened binding; strength is not graded here.
What was measured:
[1] = target: valosin-containing protein (VCP), endogenous in human brain cortex (human (endogenous in brain cortex)) (UniProt P55072); test: co-IP; IP of endogenous VCP from postmortem human cortex: Protein A and Protein G agarose beads, 2 μg antibody, 1 mg lysate, overnight at 4°C; immunoblot for endogenous PINK1
GFP-VCP [2] = target: GFP-VCP (UniProt P55072); test: co-IP; GFP IP (μMACS Epitope Tag Protein Isolation kit) of lysates of transfected HEK293 cells; immunoblot
[3] = target: valosin-containing protein (VCP), endogenous in HEK293 cells (human (endogenous in HEK293)) (UniProt P55072); test: co-IP; IP of endogenous VCP from HEK cells: Protein A and Protein G agarose beads, 2 μg antibody, 1 mg lysate, overnight at 4°C; immunoblot for endogenous PINK1
GFP-VCP [4] = target: GFP-VCP (UniProt P55072); test: co-IP; GFP IP (μMACS Epitope Tag Protein Isolation kit) of lysates of transfected HEK293 cells; immunoblot; remark: listed apart in the source

Protein sequences, listed by entry. Tags and fused reporters are not part of them. Residues count along the entry.
UniProt Q9BXM7, residues 78-581: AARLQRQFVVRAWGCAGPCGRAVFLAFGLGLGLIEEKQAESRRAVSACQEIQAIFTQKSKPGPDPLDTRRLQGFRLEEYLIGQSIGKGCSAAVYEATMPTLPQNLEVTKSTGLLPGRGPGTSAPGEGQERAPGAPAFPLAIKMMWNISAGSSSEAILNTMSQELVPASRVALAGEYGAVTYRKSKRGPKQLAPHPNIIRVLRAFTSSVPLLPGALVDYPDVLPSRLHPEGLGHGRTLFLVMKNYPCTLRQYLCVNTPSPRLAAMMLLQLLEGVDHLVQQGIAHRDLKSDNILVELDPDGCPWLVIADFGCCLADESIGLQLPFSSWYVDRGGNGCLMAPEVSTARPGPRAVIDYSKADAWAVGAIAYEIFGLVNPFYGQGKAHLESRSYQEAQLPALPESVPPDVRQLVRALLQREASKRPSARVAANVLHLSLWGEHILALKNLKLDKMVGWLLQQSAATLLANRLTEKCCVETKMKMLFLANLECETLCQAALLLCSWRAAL

PINK1, endogenous in human brain cortex (from UniProt Q9BXM7 78-581)
binding [1]: binds

WT-PINK1-FLAG (from UniProt Q9BXM7 78-581)
binding (GFP-VCP [2]): binds

PINK1, endogenous in HEK293 cells (from UniProt Q9BXM7 78-581)
binding [3]: binds

B1: NSFL1C/p47, endogenous in HEK293 cells (protein, UniProt Q9UNZ2 1-370)
chain: MAAERQEALREFVAVTGAEEDRARFFLESAGWDLQIALASFYEDGGDEDIVTISQATPSSVSRGTAPSDNRVTSFRDLIHDQDEDEEEEEGQRFYAGGSERSGQQIVGPPRKKSPNELVDDLFKGAKEHGAVAVERVTKSPGETSKPRPFAGGGYRLGAAPEEESAYVAGEKRQHSSQDVHVVLKLWKSGFSLDNGELRSYQDPSNAQFLESIRRGEVPAELRRLAHGGQVNLDMEDHRDEDFVKPKGAFKAFTGEGQKLGSTAPQVLSTSSPAQQAENEAKASSSILIDESEPTTNIQIRLADGGRLVQKFNHSHRISDIRLFIVDARPAMAATSFILMTTFPNKELADESQTLKEANLLNAVIVQRLT
binding (GFP-VCP [4]): binds
